Data as given in PubChem BioAssay AID652243 (Drosophila RNAi Screening Center, 2013).
Purpose: 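Fly regulators of androgen-dependent reporter output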 (primary screen). System: Drosophila S2R+ cells. Knock-down reagent: long dsRNA against Drosophila genes. Timing: 72 h (48 h, then 24 h hormone). Challenge: synthetic androgen R1881 at 10 nM for 24 h. Measured: 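Firefly light from an androgen-responsive reporter and Renilla control light per well, raw and unnormalised, for each of two replicates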. Reading the numbers: firefly reporter light: higher = more light from androgen-responsive reporter; Renilla control light: higher = more constitutive control signal (cell number, transfection). Rule for the call: 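Hit when the log firefly-to-Renilla ratio dropped or increased by a fixed fold versus the mean of GFP or LacZ controls across duplicate plates; lowering cut given as 1.5 and as 3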. Meaning of the calls: active = hit: reporter lowered or raised; inactive = no hit.
In all, the deposit lists about 24,000 reagents; below is a random part of those that have a named target and a result. Over the whole deposit, 246 (1%) were called active. 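Plates not normalised; calls are printed but the firefly/Renilla ratio behind them is not deposited; fold cut for lowering reported inconsistently.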 The raw values are shown without normalisation. Reagents against one gene are numbered here. A plus sign joins genes that one reagent is predicted to hit. Reagent sequences are not shown. The record does not give: the amount of reagent.

Gene,reagent no.,"firefly reporter light, replicate 1","firefly reporter light, replicate 2","Renilla control light, replicate 1","Renilla control light, replicate 2",activity call
CG12084,1,6.26e5,5.17e5,1.18e6,1.09e6,inactive
CG12084,2,2.96e5,2.33e5,4.23e5,2.29e5,inactive
form3,1,2.68e5,1.69e5,1.52e6,2.20e6,inactive
form3,2,9.56e5,4.33e5,2.16e6,1.82e6,inactive
form3,3,1.71e5,1.43e5,1.99e6,2.11e6,inactive
CG42372 + CG30100,1,86726,2.04e5,2.42e5,3.88e5,inactive
Arpc2,1,7.99e5,8.35e5,1.52e6,1.93e6,inactive
CG17298,1,2.86e5,2.46e5,3.16e6,2.91e6,inactive
CG17298,2,5.73e5,3.01e5,1.44e6,1.15e6,inactive
CG32115,1,8.86e5,1.03e6,1.43e6,1.74e6,inactive
Trpgamma,1,1.26e5,1.37e5,2.05e6,2.14e6,inactive
Naa60,1,1.89e5,1.86e5,1.78e6,1.81e6,inactive
Naa60,2,3.48e5,2.59e5,6.36e5,6.87e5,inactive
CG33630,1,77487,1.10e5,1.35e6,9.74e5,inactive
MED22,1,1.81e5,2.31e5,3.37e6,3.09e6,inactive
CG2767,1,39440,64259,2.51e5,5.09e5,inactive
CG2767,2,4.00e5,3.25e5,5.20e5,3.43e5,inactive
bel,1,99476,1.08e5,1.52e6,2.10e6,inactive
bel,2,7.65e5,6.98e5,7.87e5,7.43e5,inactive
side-VIII,1,1.58e5,2.07e5,3.55e5,3.50e5,inactive
side-VIII,2,43836,52407,1.29e5,1.61e5,inactive
side-VIII,3,1.83e5,1.79e5,1.89e6,1.69e6,inactive
side-VIII,4,7.99e5,8.12e5,2.01e6,1.96e6,inactive
side-VIII,5,3.19e5,5.55e5,1.25e6,1.75e6,inactive
side-VIII,6,,,,,inactive
CG15449,1,2.74e5,1.58e5,9.48e5,6.94e5,inactive
CG10752,1,9.52e5,8.05e5,2.02e6,2.06e6,inactive
CG10761,1,2.87e5,3.51e5,2.35e6,2.41e6,inactive
CG10761,2,3.67e5,4.32e5,3.11e5,5.70e5,inactive
U2af38,1,6.29e5,7.44e5,1.56e6,8.83e5,inactive
U2af38,2,3.61e5,3.69e5,9.27e5,7.99e5,inactive
lncRNA:CR31647,1,4.18e5,4.40e5,1.39e6,1.62e6,inactive
lncRNA:CR31647,2,6.93e5,6.84e5,8.39e5,9.21e5,inactive
Ank,1,36388,43216,3.33e5,3.19e5,inactive
Ank,2,9.77e5,7.20e5,1.55e6,1.61e6,inactive
Ets97D,1,1.88e5,1.71e5,2.61e6,2.60e6,inactive
Ets97D,2,3.73e5,4.34e5,5.15e5,6.31e5,inactive
Rga + asRNA:ASTR,1,1.24e5,66103,2.98e6,1.66e6,inactive
CCHa1,1,1.32e6,8.63e5,1.09e6,1.09e6,inactive
fd59A,1,9.05e5,6.01e5,1.65e6,1.55e6,inactive
fd59A,2,3.95e5,3.16e5,3.83e5,3.79e5,inactive
Su(P),1,2.29e5,1.73e5,2.12e6,1.83e6,inactive
Su(P),2,5.98e5,4.60e5,1.38e6,1.21e6,inactive
meng,1,1.53e5,1.55e5,1.24e6,1.00e6,inactive
meng,2,4.60e5,2.33e5,1.20e6,1.15e6,inactive
Gas41,1,7.34e5,5.46e5,1.48e6,1.24e6,inactive
CG5886,1,96690,81142,6.44e5,6.01e5,inactive
CG10154,1,1.49e5,1.60e5,1.35e6,1.43e6,inactive
morgue,1,1.39e6,1.94e6,1.78e6,1.91e6,inactive
RAF2,1,31664,35165,4.22e5,2.29e5,inactive
RAF2,2,2.33e5,2.18e5,1.43e6,1.44e6,inactive
RAF2,3,1.98e5,1.79e5,4.45e5,4.32e5,inactive
CAH1,1,1.16e6,1.54e6,1.21e6,1.21e6,inactive
Rbf2,1,1.67e5,1.74e5,2.74e6,2.93e6,inactive
Nepl6,1,6.35e5,7.12e5,3.63e6,4.49e6,inactive
Nepl6,2,2.75e5,3.73e5,9.22e5,9.80e5,inactive
HINT1,1,1.08e5,59155,2.84e5,1.45e5,inactive
CG3603,1,2.32e5,2.79e5,2.75e6,3.62e6,inactive
Pomp,1,5.09e5,1.12e6,9.18e5,1.65e6,inactive
Pomp,2,2.37e5,1.66e5,3.31e5,5.02e5,inactive
CG14655,1,5.00e5,6.18e5,3.23e6,4.47e6,inactive
CG14655,2,4.56e5,3.88e5,8.50e5,9.50e5,inactive
CG7878,1,59766,80127,1.72e6,1.12e6,inactive
CG7878,2,6.44e5,7.62e5,8.51e5,8.23e5,inactive
CngB,1,5.23e5,8.82e5,2.70e6,2.49e6,inactive
CG32081,1,2.11e5,2.13e5,1.83e6,1.71e6,inactive
abo,1,2.32e5,2.09e5,1.54e6,1.67e6,inactive
Rh2,1,1.91e5,2.17e5,2.92e6,3.38e6,inactive
Rh2,2,7.75e5,3.68e5,1.80e6,4.40e5,inactive
E(spl)mdelta-HLH,1,1.27e5,1.28e5,2.38e6,2.24e6,inactive
Rnp4F,1,55932,91926,7.97e5,6.05e5,inactive
Rnp4F,2,1.03e5,1.69e5,2.03e5,2.27e5,inactive
Nct,1,72948,59695,5.60e5,3.84e5,inactive
CG32801,1,4.35e5,3.24e5,4.39e6,3.39e6,inactive
CG32801,2,8.85e5,9.26e5,1.29e6,1.58e6,inactive

Already shown: an excerpt of the list.
Gene,reagent no.,"firefly reporter light, replicate 1","firefly reporter light, replicate 2","Renilla control light, replicate 1","Renilla control light, replicate 2",activity call
CG12084,2,2.96e5,2.33e5,4.23e5,2.29e5,inactive
form3,1,2.68e5,1.69e5,1.52e6,2.20e6,inactive
form3,2,9.56e5,4.33e5,2.16e6,1.82e6,inactive
form3,3,1.71e5,1.43e5,1.99e6,2.11e6,inactive
